From PMC5656757
Like-named read-outs stand apart in the source and are kept apart here. No constants are given. Whether binding was seen depends on the method and setting. In cells and extracts the contact can be indirect. These calls come from enrichment with a bait or labelling near it, and not all partners need be listed.

Sequences of proteins named here, by UniProt entry; tags and fusion partners are left off.
UniProt P08013: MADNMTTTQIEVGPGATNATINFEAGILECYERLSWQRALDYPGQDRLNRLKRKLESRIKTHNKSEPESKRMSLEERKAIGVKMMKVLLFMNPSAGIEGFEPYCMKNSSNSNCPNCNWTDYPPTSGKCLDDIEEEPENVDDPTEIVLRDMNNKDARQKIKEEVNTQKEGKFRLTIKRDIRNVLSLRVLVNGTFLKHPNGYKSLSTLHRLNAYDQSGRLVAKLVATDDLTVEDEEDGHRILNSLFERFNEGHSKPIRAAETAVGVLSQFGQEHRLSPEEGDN
UniProt O75643: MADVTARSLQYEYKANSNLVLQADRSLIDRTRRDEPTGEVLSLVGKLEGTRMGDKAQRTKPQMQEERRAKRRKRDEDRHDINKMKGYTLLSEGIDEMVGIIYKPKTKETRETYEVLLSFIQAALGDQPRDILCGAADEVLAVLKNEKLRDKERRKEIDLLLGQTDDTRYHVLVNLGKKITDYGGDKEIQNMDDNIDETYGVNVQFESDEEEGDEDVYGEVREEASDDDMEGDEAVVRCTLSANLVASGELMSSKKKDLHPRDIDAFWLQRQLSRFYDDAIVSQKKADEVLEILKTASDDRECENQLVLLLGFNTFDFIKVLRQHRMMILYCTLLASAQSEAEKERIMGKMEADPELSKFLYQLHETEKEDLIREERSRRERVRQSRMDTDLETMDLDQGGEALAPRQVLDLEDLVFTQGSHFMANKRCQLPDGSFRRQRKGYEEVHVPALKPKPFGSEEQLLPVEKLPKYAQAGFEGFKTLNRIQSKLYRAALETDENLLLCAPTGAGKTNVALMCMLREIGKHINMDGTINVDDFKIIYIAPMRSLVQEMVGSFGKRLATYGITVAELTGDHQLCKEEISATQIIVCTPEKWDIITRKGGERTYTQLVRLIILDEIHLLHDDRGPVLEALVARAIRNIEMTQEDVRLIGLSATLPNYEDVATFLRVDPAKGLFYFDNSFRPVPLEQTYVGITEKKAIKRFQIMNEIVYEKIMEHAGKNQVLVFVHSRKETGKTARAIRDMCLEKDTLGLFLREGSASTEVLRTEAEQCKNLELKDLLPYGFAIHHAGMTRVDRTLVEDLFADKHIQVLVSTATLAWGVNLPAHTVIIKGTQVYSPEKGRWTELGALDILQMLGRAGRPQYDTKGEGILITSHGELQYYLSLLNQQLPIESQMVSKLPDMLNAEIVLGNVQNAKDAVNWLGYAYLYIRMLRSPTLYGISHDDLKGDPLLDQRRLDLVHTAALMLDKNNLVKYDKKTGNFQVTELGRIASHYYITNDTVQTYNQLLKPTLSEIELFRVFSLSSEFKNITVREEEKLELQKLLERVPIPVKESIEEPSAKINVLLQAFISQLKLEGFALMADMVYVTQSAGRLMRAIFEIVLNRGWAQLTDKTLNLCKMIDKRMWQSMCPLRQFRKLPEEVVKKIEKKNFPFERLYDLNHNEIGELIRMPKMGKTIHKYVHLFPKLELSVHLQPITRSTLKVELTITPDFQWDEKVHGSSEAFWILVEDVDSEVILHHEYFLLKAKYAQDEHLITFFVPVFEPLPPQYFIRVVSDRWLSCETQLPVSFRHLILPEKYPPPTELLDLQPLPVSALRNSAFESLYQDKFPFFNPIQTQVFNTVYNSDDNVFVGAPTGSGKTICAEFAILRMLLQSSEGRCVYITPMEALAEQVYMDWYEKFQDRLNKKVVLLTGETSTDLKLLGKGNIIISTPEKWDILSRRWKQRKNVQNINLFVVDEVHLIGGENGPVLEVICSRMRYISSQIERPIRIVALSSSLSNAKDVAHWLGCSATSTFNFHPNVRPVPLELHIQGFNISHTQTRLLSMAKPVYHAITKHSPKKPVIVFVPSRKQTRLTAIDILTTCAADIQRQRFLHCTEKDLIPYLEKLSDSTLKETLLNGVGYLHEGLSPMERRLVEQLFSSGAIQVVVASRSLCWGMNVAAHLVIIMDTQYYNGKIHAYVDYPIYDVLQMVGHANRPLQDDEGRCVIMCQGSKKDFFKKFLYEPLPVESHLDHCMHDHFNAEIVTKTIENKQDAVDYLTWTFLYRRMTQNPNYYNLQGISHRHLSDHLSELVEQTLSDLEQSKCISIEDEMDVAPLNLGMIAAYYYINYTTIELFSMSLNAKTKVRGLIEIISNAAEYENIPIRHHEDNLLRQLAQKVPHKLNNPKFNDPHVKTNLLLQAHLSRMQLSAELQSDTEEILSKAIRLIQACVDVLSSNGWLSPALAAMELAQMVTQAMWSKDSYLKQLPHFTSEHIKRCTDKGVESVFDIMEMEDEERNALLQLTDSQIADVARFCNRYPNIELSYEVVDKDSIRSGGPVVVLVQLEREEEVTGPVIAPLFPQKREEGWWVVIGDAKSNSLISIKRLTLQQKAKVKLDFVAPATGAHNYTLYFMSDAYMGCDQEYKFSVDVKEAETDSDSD

B1: ILF3 (protein, UniProt Q12906 1-894)
chain: MRPMRIFVNDDRHVMAKHSSVYPTQEELEAVQNMVSHTERALKAVSDWIDEQEKGSSEQAESDNMDVPPEDDSKEGAGEQKTEHMTRTLRGVMRVGLVAKGLLLKGDLDLELVLLCKEKPTTALLDKVADNLAIQLAAVTEDKYEILQSVDDAAIVIKNTKEPPLSLTIHLTSPVVREEMEKVLAGETLSVNDPPDVLDRQKCLAALASLRHAKWFQARANGLKSCVIVIRVLRDLCTRVPTWGPLRGWPLELLCEKSIGTANRPMGAGEALRRVLECLASGIVMPDGSGIYDPCEKEATDAIGHLDRQQREDITQSAQHALRLAAFGQLHKVLGMDPLPSKMPKKPKNENPVDYTVQIPPSTTYAITPMKRPMEEDGEEKSPSKKKKKIQKKEEKAEPPQAMNALMRLNQLKPGLQYKLVSQTGPVHAPIFTMSVEVDGNSFEASGPSKKTAKLHVAVKVLQDMGLPTGAEGRDSSKGEDSAEETEAKPAVVAPAPVVEAVSTPSAAFPSDATAEQGPILTKHGKNPVMELNEKRRGLKYELISETGGSHDKRFVMEVEVDGQKFQGAGSNKKVAKAYAALAALEKLFPDTPLALDANKKKRAPVPVRGGPKFAAKPHNPGFGMGGPMHNEVPPPPNLRGRGRGGSIRGRGRGRGFGGANHGGYMNAGAGYGSYGYGGNSATAGYSQFYSNGGHSGNASGGGGGGGGGSSGYGSYYQGDNYNSPVPPKHAGKKQPHGGQQKPSYGSGYQSHQGQQQSYNQSPYSNYGPPQGKQKGYNHGQGSYSYSNSYNSPGGGGGSDYNYESKFNYSGSGGRSGGNSYGSGGASYNPGSHGGYGGGSGGGSSYQGKQGGYSQSNYNSPGSGQNYSGPPSSYQSSQGGYGRNADHSMNYQYR

How the values were obtained:
[1] = target: N-terminal V5-tagged FLUBV NS1 protein (strain B/Yamagata/1/73) (influenza B virus (strain B/Yamagata/1/73)) (UniProt P08013); test: affinity purification with mass spectrometry
[2] = target: N-terminal V5-tagged FLUBV NS1 protein (strain B/Yamagata/1/73) (influenza B virus (strain B/Yamagata/1/73)) (UniProt P08013); test: affinity purification with mass spectrometry; remark: listed apart in the source

Row | Molecule | binding [1] | binding [2]
1 | SNRNP200 (from UniProt O75643 1-2136) | binds | 
2 | B1 |  | binds
